Results: publication PMC7115168
No constants are given. Whether binding was seen depends on the method and setting. Binding seen in cells or lysates may run through a third protein. Some binding calls cover weakened binding; strength is not graded here.

Target: T1, Peroxisome proliferator-activated receptor γ coactivator 1α (human (endogenous in MHCC-97H and HCC-LM3)) (UniProt Q9UBK2)
T1 sequence: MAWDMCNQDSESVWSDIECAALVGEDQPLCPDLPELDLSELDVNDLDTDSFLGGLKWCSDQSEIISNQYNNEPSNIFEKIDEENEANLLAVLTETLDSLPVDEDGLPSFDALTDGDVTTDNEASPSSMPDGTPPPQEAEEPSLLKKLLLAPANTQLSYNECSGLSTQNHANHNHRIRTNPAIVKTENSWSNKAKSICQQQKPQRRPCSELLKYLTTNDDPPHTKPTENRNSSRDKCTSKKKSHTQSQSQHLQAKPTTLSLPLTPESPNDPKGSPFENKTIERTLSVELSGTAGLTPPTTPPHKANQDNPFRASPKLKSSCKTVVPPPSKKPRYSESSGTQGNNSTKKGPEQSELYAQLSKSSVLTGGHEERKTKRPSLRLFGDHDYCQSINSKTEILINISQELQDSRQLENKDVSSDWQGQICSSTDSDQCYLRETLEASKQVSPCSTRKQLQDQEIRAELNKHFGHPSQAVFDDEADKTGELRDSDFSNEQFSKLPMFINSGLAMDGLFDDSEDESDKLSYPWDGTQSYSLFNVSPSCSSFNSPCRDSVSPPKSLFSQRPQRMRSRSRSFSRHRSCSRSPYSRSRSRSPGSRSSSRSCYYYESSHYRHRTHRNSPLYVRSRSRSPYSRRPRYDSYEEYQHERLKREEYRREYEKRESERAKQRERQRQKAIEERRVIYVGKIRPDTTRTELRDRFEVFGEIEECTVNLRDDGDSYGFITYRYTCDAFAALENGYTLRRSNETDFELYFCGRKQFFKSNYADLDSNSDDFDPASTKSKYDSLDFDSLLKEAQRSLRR
Assay: co-IP; endogenous IP from whole cell lysates of MHCC-97H and HCC-LM3 cells; primary antibodies and protein A/G Dynabeads at 4°C overnight; input, IgG negative control and IP analysed by Western blotting

binding: binds
B1: SET8 (protein, UniProt Q9NQR1 1-393)
chain: MGEGGAAAALVAAAAAAAAAAAAVVAGQRRRRLGRRARCHGPGRAAGGKMSKPCAVEAAAAAVAATAPGPEMVERRGPGRPRTDGENVFTGQSKIYSYMSPNKCSGMRFPLQEENSVTHHEVKCQGKPLAGIYRKREEKRNAGNAVRSAMKSEEQKIKDARKGPLVPFPNQKSEAAEPPKTPPSSCDSTNAAIAKQALKKPIKGKQAPRKKAQGKTQQNRKLTDFYPVRRSSRKSKAELQSEERKRIDELIESGKEEGMKIDLIDGKGRGVIATKQFSRGDFVVEYHGDLIEITDAKKREALYAQDPSTGCYMYYFQYLSKTYCVDATRETNRLGRLINHSKCGNCQTKLHDIDGVPHLILIASRDIAAGEELLYDYGDRSKASIEAHPWLKH
